No constants are given. Whether binding was seen depends on the method and setting. Binding seen in cells or lysates may run through a third protein. Some binding calls cover weakened binding; strength is not graded here. For some assays here: Where a sequence is shown, tags or fusion partners need not be part of it.
How the values were obtained:
[1] = biological target: T1, free fatty acid 2 receptor, cell-free synthesized, with C-terminal Strep-tag, in nanodiscs (DOPG) (UniProt O15552); test: condition: 0.5 µM GPCR/ND complexes added to the cells; pull-down; HEK293 cells transfected with Flag-H1R or Flag-H2R; 0.5 µM purified Strep-tagged GPCR/ND (DOPG) complexes nanotransferred into the cells; cells washed and lysed; anti-Strep pulldown with magnetic Strep-Tactin beads; anti-Flag immunoblot; performed once; only the target purified
T1 sequence: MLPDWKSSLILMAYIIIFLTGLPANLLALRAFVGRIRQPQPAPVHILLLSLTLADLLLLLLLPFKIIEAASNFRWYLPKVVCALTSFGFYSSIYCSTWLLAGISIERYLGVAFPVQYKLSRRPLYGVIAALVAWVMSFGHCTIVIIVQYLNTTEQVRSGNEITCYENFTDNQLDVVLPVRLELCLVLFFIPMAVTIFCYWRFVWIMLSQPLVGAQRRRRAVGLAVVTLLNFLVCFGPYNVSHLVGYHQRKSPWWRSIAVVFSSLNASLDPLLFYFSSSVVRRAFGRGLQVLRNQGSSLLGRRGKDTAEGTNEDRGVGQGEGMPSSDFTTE

Amino acid sequences for entries named in this document (tags omitted). A change or cut given only in a name is not applied to a line headed by its entry.
UniProt P25021: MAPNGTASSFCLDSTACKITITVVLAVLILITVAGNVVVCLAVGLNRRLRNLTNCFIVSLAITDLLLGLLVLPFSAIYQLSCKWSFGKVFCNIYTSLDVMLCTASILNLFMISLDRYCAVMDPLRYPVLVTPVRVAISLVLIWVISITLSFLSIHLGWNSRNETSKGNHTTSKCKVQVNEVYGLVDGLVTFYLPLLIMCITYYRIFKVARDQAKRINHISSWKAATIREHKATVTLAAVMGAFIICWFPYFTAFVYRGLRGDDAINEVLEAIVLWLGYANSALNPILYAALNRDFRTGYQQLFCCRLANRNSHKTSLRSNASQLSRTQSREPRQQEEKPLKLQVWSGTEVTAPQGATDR
UniProt P35367: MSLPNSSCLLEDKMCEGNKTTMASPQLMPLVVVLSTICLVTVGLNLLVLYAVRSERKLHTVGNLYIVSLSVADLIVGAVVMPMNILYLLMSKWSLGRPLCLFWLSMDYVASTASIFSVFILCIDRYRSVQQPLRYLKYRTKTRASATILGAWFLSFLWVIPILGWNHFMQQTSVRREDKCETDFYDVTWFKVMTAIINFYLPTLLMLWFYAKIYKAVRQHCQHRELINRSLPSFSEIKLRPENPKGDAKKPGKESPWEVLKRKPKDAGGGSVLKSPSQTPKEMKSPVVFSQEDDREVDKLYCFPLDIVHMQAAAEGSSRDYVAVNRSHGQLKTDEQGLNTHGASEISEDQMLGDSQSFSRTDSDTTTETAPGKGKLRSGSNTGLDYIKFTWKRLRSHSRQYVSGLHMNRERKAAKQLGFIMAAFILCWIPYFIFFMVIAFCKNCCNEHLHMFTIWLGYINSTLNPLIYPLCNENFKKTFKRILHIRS

[2] = biological target: human histamine 2 receptor, cell-free synthesized, with C-terminal Strep-tag, in nanodiscs (DOPG) (human) (UniProt P25021); test: pull-down; HEK293 cells transfected with Flag-H1R or Flag-H2R; 0.5 µM purified Strep-tagged GPCR/ND (DOPG) complexes nanotransferred into the cells; cells washed and lysed; anti-Strep pulldown with magnetic Strep-Tactin beads; anti-Flag immunoblot; performed once; only the target purified

binding [1]: no binding
binding [2]: binds
Substance: Flag-tagged H1R expressed in transfected HEK293 cells (from UniProt P35367 1-487) (receptor)
